Data taken from patent publication US20190085082A1 (CANCER RESEARCH TECHNOLOGY, published 2019).

Legend:
[1] = target: CLEC14A with regions 1-42 of CD141 (1-42 chimera); test: flow cytometry on transfected cells; chimera said not to fold correctly
[2] = target: CLEC14A with regions 97-108 of CD141 (97-108 chimera) (human); test: flow cytometry on transfected HEK293T cells
[3] = target: CLEC14A with regions 97-108 of CD141 (97-108 chimera) (human); test: flow cytometry, HEK293T cells transfected with the chimera of CLEC14A carrying loop residues 97-108 of thrombomodulin (GFP-positive cells gated)

- binding [1]: no binding
- binding [2]: binds
- binding [3]: binds
B1: CRT-3 anti-CLEC14A monoclonal antibody (antibody, IgG1, V domains shown)
VH: EVQLQQSGTVLARPGASVKMSCKASGYTFTSYWMHWVKQRPGQGLEWIGAIYPGNSDTSYNQKFKGKAKLTAVTSTSTAYMELSSLTNEDSAVFYCTHYYGSDYAMDYWGQGTSVTV
VL: QIVLTQSPAIMSASLGERVTMTCTASSSVSSSYLHWYQQKPGSSPKLWIYSTSNLASGVPARFSGSGSGTSYSLTISSMEAEDAATYYCHQYHRSPRTFGGGTKLEIKR

Results are given in words; binding and its absence hold for the method and conditions named. For part of these data: Binding can be weak; no strength is given.
